Results are given in words; binding and its absence hold for the method and conditions named. In cells and extracts the contact can be indirect. For some assays here: Binding can be weak; no strength is given.
Tests used:
[1] = target: T1, SUCNR1-mVenus (human) (UniProt Q9BXA5); assay: FRET or BRET; living HEK293-T cells co-transfected with SUCNR1-mVenus and arrestin-3-Nluc; stimulated with 100 or 200 μM succinate (SUC) or cis-epoxysuccinate (CES); with or without 30 min pre-incubation with 100 nM NF56-EJ40; PBS with glucose or glutamine; BRET ratio = acceptor emission/donor emission
T1 sequence: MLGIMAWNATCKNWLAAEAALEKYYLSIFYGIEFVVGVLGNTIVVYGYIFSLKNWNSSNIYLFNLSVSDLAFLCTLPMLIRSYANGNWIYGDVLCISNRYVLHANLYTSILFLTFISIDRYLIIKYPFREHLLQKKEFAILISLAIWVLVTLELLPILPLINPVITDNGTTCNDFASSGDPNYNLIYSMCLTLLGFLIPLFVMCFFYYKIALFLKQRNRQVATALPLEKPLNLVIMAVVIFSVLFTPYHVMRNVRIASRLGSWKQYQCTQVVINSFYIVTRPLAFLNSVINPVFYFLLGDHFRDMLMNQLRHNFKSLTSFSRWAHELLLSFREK

[2] = target: T1, SUCNR1-mVenus (human); assay: condition: only stimulated with 100 μM compound 31 instead of SUC or CES; FRET or BRET; living HEK293-T cells co-transfected with SUCNR1-mVenus and arrestin-3-Nluc; stimulated with 100 μM compound 31

- binding [1]: binds
- binding [2]: no binding
Substance: arrestin-3-Nluc

Reference: publication PMC12001207 (The FEBS journal, 2025)
